Laboratory results reported in publication PMC5137149.
Results are given in words; binding and its absence hold for the method and conditions named. In cells and extracts the contact can be indirect. Some entries that bind do so weakly or less than the wild type.

Amino acid sequences for entries named in this document (tags omitted).
UniProt P46935: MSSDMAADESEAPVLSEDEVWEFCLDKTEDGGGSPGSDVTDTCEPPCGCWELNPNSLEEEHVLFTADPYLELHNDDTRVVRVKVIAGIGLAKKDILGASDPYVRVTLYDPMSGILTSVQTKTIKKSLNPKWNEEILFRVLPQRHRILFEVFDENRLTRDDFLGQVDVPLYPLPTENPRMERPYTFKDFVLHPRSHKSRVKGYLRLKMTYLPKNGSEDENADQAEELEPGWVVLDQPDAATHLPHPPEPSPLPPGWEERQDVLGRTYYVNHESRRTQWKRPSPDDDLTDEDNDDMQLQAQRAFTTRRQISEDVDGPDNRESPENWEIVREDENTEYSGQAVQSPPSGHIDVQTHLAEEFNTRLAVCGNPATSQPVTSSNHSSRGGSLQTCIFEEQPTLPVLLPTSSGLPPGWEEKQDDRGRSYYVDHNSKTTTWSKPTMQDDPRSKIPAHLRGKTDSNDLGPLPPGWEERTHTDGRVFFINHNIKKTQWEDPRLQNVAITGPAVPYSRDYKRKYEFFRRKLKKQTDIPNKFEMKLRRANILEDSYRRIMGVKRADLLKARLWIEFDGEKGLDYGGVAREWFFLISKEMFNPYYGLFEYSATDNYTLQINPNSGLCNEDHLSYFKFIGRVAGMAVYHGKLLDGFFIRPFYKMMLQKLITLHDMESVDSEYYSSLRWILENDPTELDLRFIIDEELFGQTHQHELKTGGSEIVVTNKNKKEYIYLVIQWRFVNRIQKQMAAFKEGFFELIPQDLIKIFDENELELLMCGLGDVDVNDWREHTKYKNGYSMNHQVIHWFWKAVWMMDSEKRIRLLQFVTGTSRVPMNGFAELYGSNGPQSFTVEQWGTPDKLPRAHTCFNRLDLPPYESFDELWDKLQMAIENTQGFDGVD
UniProt Q62940: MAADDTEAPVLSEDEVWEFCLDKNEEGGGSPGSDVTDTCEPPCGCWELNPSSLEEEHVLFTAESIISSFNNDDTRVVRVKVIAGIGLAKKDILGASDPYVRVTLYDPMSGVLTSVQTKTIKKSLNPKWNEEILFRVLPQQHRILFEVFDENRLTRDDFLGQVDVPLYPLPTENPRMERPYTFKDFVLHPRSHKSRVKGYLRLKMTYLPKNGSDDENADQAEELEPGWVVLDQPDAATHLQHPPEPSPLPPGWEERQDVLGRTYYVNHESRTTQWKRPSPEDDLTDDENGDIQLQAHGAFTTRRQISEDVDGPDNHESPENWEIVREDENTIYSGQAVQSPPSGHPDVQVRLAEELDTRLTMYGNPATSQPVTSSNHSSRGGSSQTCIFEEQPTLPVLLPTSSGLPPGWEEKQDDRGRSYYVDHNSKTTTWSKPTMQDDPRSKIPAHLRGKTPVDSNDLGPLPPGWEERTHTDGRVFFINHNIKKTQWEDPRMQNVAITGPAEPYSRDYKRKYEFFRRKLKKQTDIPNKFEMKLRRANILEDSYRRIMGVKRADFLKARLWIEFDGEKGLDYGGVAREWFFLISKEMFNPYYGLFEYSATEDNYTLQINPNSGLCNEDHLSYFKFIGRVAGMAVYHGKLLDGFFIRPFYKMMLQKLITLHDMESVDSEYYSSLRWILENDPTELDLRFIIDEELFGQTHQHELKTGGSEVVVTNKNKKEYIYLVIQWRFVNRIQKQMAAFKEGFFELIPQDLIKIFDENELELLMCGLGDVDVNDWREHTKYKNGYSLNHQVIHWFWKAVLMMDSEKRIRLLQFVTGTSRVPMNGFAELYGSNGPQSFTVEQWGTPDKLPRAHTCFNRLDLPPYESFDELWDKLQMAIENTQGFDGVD

Experiments:
[1] = biological target: Peroxisome proliferator-activated receptor gamma (PPARγ), endogenous mouse (mouse (endogenous in 3T3-L1 and mouse adipose tissue)) (UniProt P37238); test: co-IP; mouse epididymal adipose tissue lysates (500 μg) immunoprecipitated with 1 μg anti-PPARγ antibody (clone E-8), immunoblotted with anti-NEDD4 antibody
[2] = biological target: Peroxisome proliferator-activated receptor gamma (PPARγ), endogenous mouse (mouse (endogenous in 3T3-L1 and mouse adipose tissue)) (UniProt P37238); test: co-IP; 3T3-L1 adipocyte total lysates (500 μg) immunoprecipitated with 1 μg anti-PPARγ antibody (clone E-8), protein A/G beads overnight at 4 °C; 25 mM Tris-HCl, 150 mM NaCl, 1% NP-40; normal mouse IgG as negative control
[3] = biological target: FLAG-tagged PPARγ2 (pcDNA3.1-PPARγ2-FLAG) (UniProt P37238); test: co-IP; HEK293 cells transiently co-expressing T7-tagged NEDD4 and FLAG-tagged PPARγ2 or its PPxY mutants; immunoprecipitated with anti-PPARγ antibody (rabbit clone T.647.5 in Fig. 1C, mouse anti-PPARγ in Fig. 2B,C); 25 mM Tris-HCl, 150 mM NaCl, 1% NP-40
[4] = biological target: FLAG-PPARγ2∆Hinge (without amino acids 206–280) (UniProt P37238); test: co-IP; HEK293 cells transfected with T7-NEDD4 and FLAG-PPARγ2 or domain-deleted mutants, harvested 48 hours after transfection, MG132 (10 μM) 16 hr before harvesting; lysates immunoprecipitated with anti-FLAG antibody
[5] = biological target: FLAG-tagged PPARγ2 (pcDNA3.1-PPARγ2-FLAG) (UniProt P37238); test: as above
[6] = biological target: FLAG-PPARγ2∆LBD (without amino acids 281–505) (UniProt P37238); test: as above

Measured: binding

Neural precursor cell expressed developmentally down-regulated protein 4 (NEDD4), endogenous mouse (from UniProt P46935 1-887) (enzyme)
binds: [1] | [2]

T7-tagged NEDD4 (rat, wild type; pRc-CMV-T7-NEDD4) (from UniProt Q62940 1-887) (enzyme)
binds: [3] | [4] | [5] | [6]
